Assay results from PubChem BioAssay AID1347076 (National Center for Advancing Translational Sciences (NCATS), 2019).
In all, about 400,000 compounds went through this assay and about 13,000 (3.2%) were called active. The inconclusive results got no clear call from the source; some entries with a clear call stand among them for comparison. The call rests on the fitted dose curve; in most records, active means well fitted cell-killing curve with a large enough effect; inconclusive means small, poorly fitted or top-dose-only effect, or effect the other way; inactive means flat fitted curve, though single readings scatter. Potencies of inconclusive entries are doubtful fits and often do not repeat.

Test: qHTS assay for MDR1-selective chemotherapeutics: Primary screen using the drug-selected MDR subline cells KB-V1; further: nearly all actives have a fitted effect of over 60% in size
Conditions: KB-V1 MDR cells viability, CellTiter-Glo, 72 h; series mostly up to 46.1 µM
Outline: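 Cytotoxicity via CellTiter-Glo luminescence after 72 h compound exposure at 37 degrees C. Cells: drug-selected KB-V1 line, DMEM phenol-red free plus 10% FBS. Compounds tested at multiple concentrations; normalized data fitted to concentration-effect curves.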
Potency means the concentration at half of the fitted maximal effect.

Structure (SMILES) | Potency
COc1ccc(-c2cc(C(=O)N(C)CC(=O)Nc3ccccc3Cl)c3ccccc3n2)cc1OC | inconclusive: 11.6 µM [cytotoxic, partial curve]
COc1ccc(OC)c(NC(=O)C2CCN(S(=O)(=O)c3ccc(C)cc3)CC2)c1 | inconclusive: 20.6 µM [cytotoxic, single point]
CCN1C(=O)[C@H]2[C@@H](c3ccc(-c4ccc(Cl)c(Cl)c4)cc3)N3CCCC[C@@]3(C(=O)OC)[C@H]2C1=O | inconclusive: 29.1 µM [cytotoxic, single point]
O=C1CC(=C(c2ccccc2)c2ccccc2)C(=O)N1CCCCN1CCN(c2ccccc2)CC1 | inconclusive: 25.9 µM [cytotoxic, partial curve, poor fit]
Cc1ccccc1CC(=O)Nc1ccc(C(=O)N2CCCC2)cc1 | inactive
CCc1ccc(C(C)NC(=O)COC(=O)c2ccc(-n3cnnn3)cc2)cc1 (stereo not given) | inconclusive: 0.92 µM [rising, full curve, poor fit]
Cc1cc(=O)[nH]c(-c2ccc(C(F)(F)F)cc2)n1 | inactive
O=C(COc1ccccc1)Nc1ccc(OCc2cc(=O)n3ccsc3n2)cc1 | inactive
O=C(Nc1ccc(N2CCN(C(=O)c3cccs3)CC2)cc1)c1cccc(F)c1 | inconclusive: 32.6 µM [cytotoxic, single point]
CCOC(=O)Nc1ccc2c(c1)N(C(=O)CN(CC)CC)c1ccccc1C=C2 | inconclusive: 13 µM [cytotoxic, partial curve]
COc1ccc(OC)c(C2CC(=O)N(c3cccc(C)c3)C3=C2C(=O)OC3)c1 (stereo not given) | inactive
O=C(c1ccco1)N1CCN(c2ncnc3sc4c(c23)CCC4)CC1 | inconclusive: 11.2 µM [cytotoxic, single point]
Nc1nc(=S)c2[nH]cnc2[nH]1 | active: 0.731 µM
Cc1ccc(C(=O)Cn2ncsc2=N)cc1 | inactive
Cc1cc(C)cc(OCC(=O)Nc2cccc(-c3nc4ncccc4o3)c2)c1 | inconclusive: 29.1 µM [cytotoxic, single point]
CC(CNC(=O)Cn1ncc2c3ccccc3n(Cc3cccc(Cl)c3)c2c1=O)c1ccccc1 (stereo not given) | inconclusive: 16.4 µM [cytotoxic, single point]
COc1ccc2[nH]c3c(c2c1)CCN1C(=O)N([C@@H](C)C(=O)NC2CCN(Cc4ccccc4)CC2)C(=O)[C@]31C | inconclusive: 18.4 µM [cytotoxic, single point]
CC(C)(C)NC(=O)C(c1ccccc1F)n1c(=O)c(-c2ccco2)nc2ccccc21 (stereo not given) | inactive
CCCn1ncc(CN2CCCC(C(=O)c3cccc(OC(C)C)c3)C2)c1C (stereo not given) | inconclusive: 6.51 µM [cytotoxic, partial curve]
CCn1c(SCc2nc3ccccc3[nH]2)nnc1-c1cccnc1 | inconclusive: 16.4 µM [cytotoxic, partial curve, poor fit]
COc1ccc(C(C(=O)NC2CCCCC2)N(C(=O)c2snc(C(N)=O)c2N)c2ccc(OC)cc2OC)cc1 (stereo not given) | inconclusive: 25.9 µM [cytotoxic, single point]
COc1ccc(C2C(=O)NN=C2C)cc1 (stereo not given) | inconclusive: 2.91 µM [rising, full curve]
O=C(Cn1nc(-c2ccccc2)c2ccccc2c1=O)Nc1ccc(O)cc1 | inactive
N#Cc1c(NC(=O)/C=C/c2ccco2)sc2c1CCCC2 | active: 1.03 µM
CCOc1ccc(Nc2nc(-c3sc(N)nc3C)cs2)cc1 | inconclusive: 23.1 µM [rising, single point]

For convenience, some entries already given.
Structure (SMILES) | Potency
O=C(c1ccco1)N1CCN(c2ncnc3sc4c(c23)CCC4)CC1 | inconclusive: 11.2 µM [cytotoxic, single point]
Nc1nc(=S)c2[nH]cnc2[nH]1 | active: 0.731 µM
Cc1ccc(C(=O)Cn2ncsc2=N)cc1 | inactive
Cc1cc(C)cc(OCC(=O)Nc2cccc(-c3nc4ncccc4o3)c2)c1 | inconclusive: 29.1 µM [cytotoxic, single point]
CC(CNC(=O)Cn1ncc2c3ccccc3n(Cc3cccc(Cl)c3)c2c1=O)c1ccccc1 (stereo not given) | inconclusive: 16.4 µM [cytotoxic, single point]

More entries.

Structure (SMILES) | Potency
COc1ccc(CCCNC(=O)C2Cc3c(-c4ccc5c(c4)OCO5)ccnc3O2)cc1 (stereo not given) | inconclusive: 29.1 µM [cytotoxic, single point]
Cc1ccc2c(C)nc(N/C(N)=N/S(=O)(=O)c3ccccc3)nc2c1 | inactive
COc1cccc(N2[C@@H](CC(=O)O)c3ccccc3S2(=O)=O)c1 | inconclusive: 16.4 µM [rising, single point]
O=C(CSc1nc2cc3ccccc3cc2[nH]1)Nc1cccc(C(F)(F)F)c1 | inactive
Cc1cc(C(=O)COC(=O)Cc2n[nH]c(=O)c3ccccc23)c(C)n1-c1cccc(C(F)(F)F)c1 | active: 20.6 µM
O=C(CCCOc1ccc(Br)cc1)NCCc1ccc(OC(F)F)cc1 | inconclusive: 29.1 µM [cytotoxic, single point]
C/C(=N\Nc1cc(N2CCOCC2)ncn1)c1ccccc1 | inconclusive: 29.1 µM [cytotoxic, single point]
C[C@@H]1COc2cccc(N(C)CCO)c2S(=O)(=O)N1 | inconclusive: 25.9 µM [rising, single point]
Cc1ccc2nc(SCC(=O)Nc3ccc(F)c([N+](=O)[O-])c3)[nH]c2c1 | active: 20.6 µM
CCO[C@@H]1OC(C(N)=O)=C[C@H](C2CCCCC2)[C@H]1CCCO | inconclusive: 23.1 µM [cytotoxic, single point]
COc1ccc(OCC(=O)NNC(=S)NC(=O)c2ccc([N+](=O)[O-])cc2)cc1 | inconclusive: 16.4 µM [cytotoxic, partial curve, poor fit]
COc1ccc(C(=O)NCCN2CCC(n3c(=O)[nH]c4ccccc43)CC2)cc1F | inactive
COc1ccc(C2=NN(C(=O)COC(=O)c3ccc(NC(=O)CC#N)cc3)C(c3ccco3)C2)cc1 (stereo not given) | inconclusive: 29.1 µM [rising, single point]
Cc1[nH]c2ccccc2c1C(=O)COC(=O)c1ccccc1SCC(=O)N1CCCC1 | inactive
CCOC(=O)C1CCCN(C(=O)c2ccc(-c3ccccc3)cc2)CC1 (stereo not given) | inactive
CCOC(=O)Cn1cc(C(=O)C2CC2)c2ccccc21 | inactive
Cc1ccccc1NC1=CC(=O)CC(C)(C)C1 | inconclusive: 35.5 µM [cytotoxic, single point]
COc1cccc(C(=O)NN2c3ccccc3CCc3ccccc32)c1 | inactive
Cc1ccccc1C(=O)NCC(=O)OC1CCCCC1=O (stereo not given) | inactive
O=C1S/C(=C\c2ccc(O)c([N+](=O)[O-])c2)C(=O)N1Cc1cccc([N+](=O)[O-])c1 | inconclusive: 29.1 µM [cytotoxic, single point]
COCc1ccc(-c2c(-c3cc(OC)cc(OC)c3)oc(=O)c3cc(OC)c(OC)cc23)cc1 | inactive
O=C(Nc1ccc(S(=O)(=O)Nc2ccccc2F)cc1)N1CCCCC1 | inconclusive: 18.4 µM [cytotoxic, single point]
CCOC(=O)c1c(NC(=O)CN2CCCCC2)sc(CN(C)C)c1-c1ccccc1 | inactive
CCOC(=O)c1ccc(Nc2cc(C)nc(N3CCOCC3)n2)cc1 | inconclusive: 29.1 µM [cytotoxic, single point]
CC(C)=NOCC(=O)Nn1c(COc2c(C)cccc2C)nc2ccccc2c1=O | inactive

Structure (SMILES) | Potency
Cc1cc(C)nc(NC(=O)c2ccc(C)c(C)c2)n1 | inactive
COc1ccc(C(=S)N2CCOCC2)cc1OC(=O)c1ccccc1Cl | inactive
O=C(Nc1ccccc1Cl)C1(c2ccccc2)CC1(Cl)Cl (stereo not given) | inactive
CCCn1c2c(c(=N)c3c1CCC3)CCC2 | inactive
CCOc1ccccc1C(=O)OCC(=O)Nc1nnc(-c2ccccc2)o1 | inconclusive: 29.1 µM [cytotoxic, single point]
CC(C)(C)c1ccc(OCCC(=O)Nc2cccc(S(=O)(=O)N3CCCCC3)c2)cc1 | active: 20.6 µM
O=C(C1CCCN(S(=O)(=O)c2cc(Cl)ccc2Cl)C1)N1CCCC1 (stereo not given) | inconclusive: 11.6 µM [cytotoxic, partial curve, poor fit]
Cc1cccc(C)c1Cn1c(C)c(C(=O)NCc2ccc([N+](=O)[O-])cc2)sc1=O | active: 2.59 µM
Cn1c(=O)cc(NCCc2ccccc2)[nH]c1=O | inconclusive: 29.1 µM [cytotoxic, single point]
O=C(Cc1csc(-c2ccccc2)n1)NCc1cccs1 | inconclusive: 29.1 µM [cytotoxic, single point]
CC(C)CCNc1c(-c2cccs2)nc2ccccn12 | inactive
COc1ccccc1Nc1ccc([N+](=O)[O-])cc1N | inactive
CN(C)c1ccc(/C=C2\Oc3ccc(C#Cc4cccc(N)c4)cc3C2=O)cc1 | inactive
Cc1cc[n+](CC(=O)c2ccccc2)c2ccccc12 | inactive
CCCS(=O)(=O)c1c(S(=O)(=O)CCC)c2ccc(C(N)=O)cn2c1C(=O)c1ccc(F)cc1 | inactive
O=C(Cc1ccccc1)NNc1c2ccccc2nc2ccccc12 | inactive
COc1cccc(Nc2nc(C(N)Cc3ccc(F)cc3)cs2)n1 (stereo not given) | inconclusive: 29.1 µM [cytotoxic, single point]
COc1cccc(NC(=O)C(=O)NCC(c2cccnc2)N2CCN(c3ccccc3)CC2)c1 (stereo not given) | inactive
C=CCn1c(C)cc(C(=O)COc2ccc(S(=O)(=O)N3CCCC3)cc2[N+](=O)[O-])c1C | inconclusive: 29.1 µM [cytotoxic, single point]
COc1ccc(CSC(=N)N)cc1[N+](=O)[O-] | inconclusive: 29.1 µM [cytotoxic, single point]
CCc1nc(SCC(=O)N2CCCC2)c2ccccc2n1 | inactive
COc1cccc(-c2nn(-c3ccccc3)cc2CN(C)Cc2ccno2)c1 | inconclusive: 6.51 µM [cytotoxic, partial curve]
CCCOc1ccc(N2C(=O)CC(N3CCN(c4ccc([N+](=O)[O-])cc4)CC3)C2=O)cc1 (stereo not given) | inactive
COc1cc(CNc2nc(C)c([N+](=O)[O-])c(C)c2C#N)cc(OC)c1 | active: 7.31 µM
O=[N+]([O-])c1ccc(Sc2nnnn2-c2ccccc2)c(Cl)c1 | inconclusive: 29.1 µM [cytotoxic, single point]
